{"sequences": {"note": "Protein sequences, listed by entry. Tags and fused reporters are not part of them.", "UniProt P50990": "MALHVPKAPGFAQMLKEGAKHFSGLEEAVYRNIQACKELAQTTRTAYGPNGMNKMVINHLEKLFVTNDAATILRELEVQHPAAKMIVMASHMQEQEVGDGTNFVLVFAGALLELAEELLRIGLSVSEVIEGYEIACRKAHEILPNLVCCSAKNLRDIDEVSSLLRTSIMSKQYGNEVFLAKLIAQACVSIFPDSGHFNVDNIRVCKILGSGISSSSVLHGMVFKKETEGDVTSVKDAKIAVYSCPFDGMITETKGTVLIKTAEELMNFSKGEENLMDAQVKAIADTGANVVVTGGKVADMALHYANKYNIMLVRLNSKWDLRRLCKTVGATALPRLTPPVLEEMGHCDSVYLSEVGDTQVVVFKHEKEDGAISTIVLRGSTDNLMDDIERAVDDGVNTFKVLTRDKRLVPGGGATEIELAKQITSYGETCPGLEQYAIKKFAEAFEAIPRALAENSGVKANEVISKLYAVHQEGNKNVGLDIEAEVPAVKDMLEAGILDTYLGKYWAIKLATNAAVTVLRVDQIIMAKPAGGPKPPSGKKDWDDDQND"}, "source": "paper PMC12806248", "molecules": {"B1": {"name": "HA-CCT2 (human) (protein, UniProt P78371 1-535)", "chain": "MASLSLAPVNIFKAGADEERAETARLTSFIGAIAIGDLVKSTLGPKGMDKILLSSGRDASLMVTNDGATILKNIGVDNPAAKVLVDMSRVQDDEVGDGTTSVTVLAAELLREAESLIAKKIHPQTIIAGWREATKAAREALLSSAVDHGSDEVKFRQDLMNIAGTTLSSKLLTHHKDHFTKLAVEAVLRLKGSGNLEAIHIIKKLGGSLADSYLDEGFLLDKKIGVNQPKRIENAKILIANTGMDTDKIKIFGSRVRVDSTAKVAEIEHAEKEKMKEKVERILKHGINCFINRQLIYNYPEQLFGAAGVMAIEHADFAGVERLALVTGGEIASTFDHPELVKLGSCKLIEEVMIGEDKLIHFSGVALGEACTIVLRGATQQILDEAERSLHDALCVLAQTVKDSRTVYGGGCSEMLMAHAVTQLANRTPGKEAVAMESYAKALRMLPTIIADNAGYDSADLVAQLRAAHSEGNTTAGLDMREGTIGDMAILGITESFQVKRQVLLSAAEAAEVILRVDNIIKAAPRKRVPDHHPC"}, "B2": {"name": "CCT2, human, endogenous in A549 (protein, UniProt P78371 1-535)", "chain": "B1 chain"}}, "key": {"[1]": {"target": "endogenously HA-tagged DCAF12 (A549, CRISPR/Cas9 knock-in) (human (endogenous in A549)) (UniProt Q5T6F0)", "test": "co-IP; A549 cells with endogenously HA-tagged DCAF12; anti-HA IP, immunoblot of endogenous partners"}, "[2]": {"target": "HA-CCT6A (human) (human) (UniProt P40227)", "test": "co-IP; HEK293T co-expressing HA-tagged TRiC/CCT subunits and FLAG-DCAF12; anti-HA beads, anti-FLAG immunoblot"}, "[3]": {"target": "T1, HA-CCT2 (human) (human) (UniProt P78371)", "T1 sequence": "B1 chain", "test": "co-IP; HEK293T co-expressing HA-tagged TRiC/CCT subunits and FLAG-DCAF12; anti-HA beads, anti-FLAG immunoblot"}, "[4]": {"target": "T2, HA-CCT3 (human) (human) (UniProt P49368)", "T2 sequence": "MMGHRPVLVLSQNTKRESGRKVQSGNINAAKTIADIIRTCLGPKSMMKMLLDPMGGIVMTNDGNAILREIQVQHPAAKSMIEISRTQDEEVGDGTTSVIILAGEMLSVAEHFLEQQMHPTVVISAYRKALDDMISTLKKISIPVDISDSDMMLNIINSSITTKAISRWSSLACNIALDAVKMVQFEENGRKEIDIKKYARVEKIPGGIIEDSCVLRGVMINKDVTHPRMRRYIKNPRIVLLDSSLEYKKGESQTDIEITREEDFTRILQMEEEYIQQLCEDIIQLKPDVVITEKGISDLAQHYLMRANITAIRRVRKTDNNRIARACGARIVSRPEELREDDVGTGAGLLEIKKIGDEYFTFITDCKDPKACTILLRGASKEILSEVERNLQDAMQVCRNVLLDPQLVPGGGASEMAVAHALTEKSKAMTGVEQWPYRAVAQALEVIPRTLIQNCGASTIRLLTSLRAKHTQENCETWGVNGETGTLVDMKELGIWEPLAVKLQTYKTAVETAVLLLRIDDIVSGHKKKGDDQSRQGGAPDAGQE", "test": "co-IP; HEK293T co-expressing HA-tagged TRiC/CCT subunits and FLAG-DCAF12; anti-HA beads, anti-FLAG immunoblot"}, "[5]": {"target": "HA-TCP1 (human) (human) (UniProt P17987)", "test": "co-IP; HEK293T co-expressing HA-tagged TRiC/CCT subunits and FLAG-DCAF12; anti-HA beads, anti-FLAG immunoblot"}, "[6]": {"target": "HA-CCT8 (human) (human) (UniProt P50990)", "test": "co-IP; HEK293T co-expressing HA-tagged TRiC/CCT subunits and FLAG-DCAF12; anti-HA beads, anti-FLAG immunoblot"}, "[7]": {"target": "T3, HA-CCT4 (human) (human) (UniProt P50991)", "T3 sequence": "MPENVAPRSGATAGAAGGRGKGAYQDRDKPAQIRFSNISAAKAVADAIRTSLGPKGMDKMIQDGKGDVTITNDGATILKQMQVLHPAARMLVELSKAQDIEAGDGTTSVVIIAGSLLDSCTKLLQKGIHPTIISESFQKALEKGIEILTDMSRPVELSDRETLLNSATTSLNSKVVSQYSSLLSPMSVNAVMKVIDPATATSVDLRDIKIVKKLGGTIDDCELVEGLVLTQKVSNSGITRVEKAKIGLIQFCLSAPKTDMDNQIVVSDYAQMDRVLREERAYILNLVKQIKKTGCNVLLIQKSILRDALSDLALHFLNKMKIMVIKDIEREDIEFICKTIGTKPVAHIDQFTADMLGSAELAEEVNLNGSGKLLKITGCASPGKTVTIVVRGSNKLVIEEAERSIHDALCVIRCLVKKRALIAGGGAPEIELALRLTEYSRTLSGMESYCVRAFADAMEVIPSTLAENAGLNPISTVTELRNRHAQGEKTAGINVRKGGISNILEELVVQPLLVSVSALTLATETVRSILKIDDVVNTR", "test": "co-IP; HEK293T co-expressing HA-tagged TRiC/CCT subunits and FLAG-DCAF12; anti-HA beads, anti-FLAG immunoblot"}, "[8]": {"target": "FLAG-DCAF12 (human), expressed in HEK293T (human) (UniProt Q5T6F0)", "test": "co-IP; reciprocal: HEK293T co-expressing HA-tagged TRiC/CCT subunits and FLAG-DCAF12; anti-FLAG beads, anti-HA immunoblot"}}, "note": "These are yes or no findings as the source states them, for the method shown. In cells and extracts the contact can be indirect. Some binding calls cover weakened binding; strength is not graded here. For some of these results: Tags and fused reporters may be left off the sequences shown."}
{"molecule": "CCT8, human, endogenous in A549 (from UniProt P50990 1-548)", "values": [{"measurement": "binding", "setting": "[1]", "value": "binds"}]}
{"molecule": "FLAG-DCAF12 (human), expressed in HEK293T (from UniProt Q5T6F0 1-453)", "values": [{"measurement": "binding", "setting": "[2]", "value": "binds"}, {"measurement": "binding", "setting": "[3]", "value": "binds"}, {"measurement": "binding", "setting": "[4]", "value": "binds"}, {"measurement": "binding", "setting": "[5]", "value": "binds"}, {"measurement": "binding", "setting": "[6]", "value": "binds"}, {"measurement": "binding", "setting": "[7]", "value": "binds"}]}
{"molecule": "HA-CCT8 (human) (from UniProt P50990 1-548)", "values": [{"measurement": "binding", "setting": "[8]", "value": "binds"}]}
{"molecule": "B1", "values": [{"measurement": "binding", "setting": "[8]", "value": "binds"}]}
{"molecule": "B2", "values": [{"measurement": "binding", "setting": "[1]", "value": "binds"}]}
